Measurements: patent US20230039816A1, “METHOD FOR INDUCING HEPATOCYTE PLASTICITY” (Public University Corporation Yokohama City University, priority 2019, published 2023)
At least one compound was matched to its structure with a doubt left.

Test system: D22-Hep
Test: Induction of proliferation of D22-Hep in reprogramming medium (RM)
Format: cell-based, human
Settings: 6 days in BM+SMs/RM; PD0325901 0.01-1 μM, LY294002 10 μM, DZNep 0.1 μM, FGF2 added to BM+SMs
Protocol: The medium was changed on day 1, 3, and 5. To block the PI3K and MAPK signaling pathways, 10 μM LY29002 and a given dose of PD0325902 (0.01 μM˜1 μM) were each added to RM. […] To regulate epigenetic modification, 0.25 mM NaB, 0.5 mM VPA, 10 μM Trany, 0.5 μM RG108 and 0.5 μM BIX were added in RM. The number of cells was analyzed using an Incell analyzer 2000 (GE Healthcare) combined with Hoechst 33342 staining (Invitrogen).

`O=c1cc(N2CCOCC2)oc2c(-c3ccccc3)cccc12` [LY294002] was tested, and the “induced cellular proliferation of D22-Hep” value was “PD0325901 rather than LY294002 inhibited the FGF2-mediated cellular proliferation”.
